According to publication PMC6770469 (International Journal of Molecular Sciences, 2019):

Assay: general procedure: Fmoc solid-phase peptide synthesis
Conditions: whole synthesis, electrospray mass spectrometry

## PEPTIDE1{F.G.G.F.T.G.A.R.K.S.A.R.K.L.A.N}$$$$V2.0
  final ms purity: over 98% purity

Some peptides are written in HELM: one residue between dots, names in brackets for other building blocks, links after the first $.
